This note sets out measurements from patent publication US11458135B2, “Combination of pure 5-HT6 receptor antagonists with acetylcholinesterase inhibitors” (priority 2016, dated 2022).

The structures appear in SMILES notation.

The nature of the data set: Rodent pharmacokinetic study for assessment of drug interaction. Particulars: compound 1 3 mg/kg, p.o., donepezil 1 mg/kg, s.c.; male Wistar rats. As to the method:
Male Wistar rats (260±50 grams) were used as experimental animals. Animals were housed individually in polypropylene cages and acclimatized for three days prior to study.
Blood was collected through retro orbital plexus under isoflurane anesthesia. Collected blood was transferred into a pre-labeled eppendorf tube containing 10 μL of sodium heparin as an anticoagulant. Blood samples were collected at following time points: 0.33, 0.66, 1, 1.5, 2, 4, 6, 8 and 24 hours post dose. Blood was centrifuged at 4000 rpm for 10 minutes. Plasma was separated and stored frozen at −80 ° C. until analysis. […] The test compounds were quantified in the calibration range around 0.05-100 ng/mL in plasma. Study samples were analyzed using calibration samples in the batch and quality control samples spread across the batch.
Pharmacokinetic parameters Cmax, Tmax and AUClast were calculated by non-compartmental model using Phoenix WinNonlin 6.4.0 version Software package.

For the molecule `COc1cc2c(cc1OC)C(=O)C(CC1CCN(Cc3ccccc3)CC1)C2` (stereo not shown) [Donepezil], the “difference in plasma exposures administered alone or in combination” value is “No significant difference”.
